Tested on: kinases
Assay: KINOME scan profiling (Table 41)
Details: at 100 nM

CC(=O)N[C@H]1[C@H]([C@H](OC(=O)NCCCCCCCCCNC(=O)c2cc(C(=O)NCCCCCCCCCNC(=O)O[C@@H]([C@@H]3OC(C(=O)O)=C[C@H](NC(=N)N)[C@H]3NC(C)=O)[C@H](O)CO)c(C(=O)N[C@H](CC(=O)NCS(=O)(=O)O)C(=O)NCS(=O)(=O)O)cc2C(=O)N[C@H](CC(=O)NCS(=O)(=O)O)C(=O)NCS(=O)(=O)O)[C@H](O)CO)OC(C(=O)O)=C[C@@H]1NC(=N)N [MD185, PK2PYR(Zn)2[(D-Asp)(NHCH2SO3)2]2]
interaction between compounds and kinases: no significant interaction
